# From PMC7862700
# Amino acid sequences for entries named in this document (tags omitted). A change or cut given only in a name is not applied to a line headed by its entry.
# UniProt O43186: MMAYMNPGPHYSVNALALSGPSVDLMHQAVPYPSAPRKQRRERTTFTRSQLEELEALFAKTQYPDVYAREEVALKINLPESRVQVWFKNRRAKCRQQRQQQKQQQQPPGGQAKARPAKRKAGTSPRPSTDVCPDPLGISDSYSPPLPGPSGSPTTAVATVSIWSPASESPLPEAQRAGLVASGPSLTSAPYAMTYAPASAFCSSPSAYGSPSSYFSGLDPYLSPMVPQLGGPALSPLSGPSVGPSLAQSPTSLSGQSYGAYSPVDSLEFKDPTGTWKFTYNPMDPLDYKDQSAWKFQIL
# The list shows a part of the results, in another mix than the full data. At the low end of the ranking the order means little.
# Target: CRX (UniProt O43186)
# Assay: DAPPL (digital affinity profiling via proximity ligation, sequencing)
# Conditions: 10 mM Tris-HCl pH 7.5, 50 mM NaCl, 1 mM DTT, 4% glycerol, room temperature, 30 min; GST-TFs on glutathione beads, 16-mer random dsDNA library, 0.1% …; high values mean tight binding; double strand, one strand shown; scale: fold enrichment (6-mer frequency, TF over GST control)
row,Sequence,binding signal
1,CCGGTG,0.553
2,GCACTG,0.765
3,ACACCG,0.726
4,TAGAAA,1.58
5,CGCCAA,0.9
6,ACCTTT,1.3
7,GCGCCG,0.723
8,ATGGGC,0.994
9,GTGCTA,0.997
10,TGCCGG,0.626
11,TTGCTT,1.24
12,TGCCAT,0.963
13,GCCCAA,0.983
14,TGCCGA,0.952
15,GCCCCA,0.866
16,GCCGCC,0.73
17,GGTATC,0.836
18,CTGGAA,1.89
19,CGCCAC,0.757
20,ACGTCT,1.09

row,Sequence,binding signal
1,TGGCCA,0.856
2,TTGAGG,1.02
3,ACAAAA,1.05
4,TAATTA,2.74
5,CGAATG,1
6,CAATGT,0.827
7,CAAAGC,1.3
8,ATCAAA,1.31
9,CACACG,0.897
10,GTTCTC,1.28
11,TGCATG,0.866
12,TTGCCA,1.06
13,ACTGTT,0.926
14,ACTCAG,0.914
15,CATTGC,0.818
16,ACGTTT,1
17,TCAGCA,1.01
18,CATACA,0.804
19,CAATGG,0.794

# Target: T1, ELF5 (UniProt Q9UKW6-2)
# T1 sequence: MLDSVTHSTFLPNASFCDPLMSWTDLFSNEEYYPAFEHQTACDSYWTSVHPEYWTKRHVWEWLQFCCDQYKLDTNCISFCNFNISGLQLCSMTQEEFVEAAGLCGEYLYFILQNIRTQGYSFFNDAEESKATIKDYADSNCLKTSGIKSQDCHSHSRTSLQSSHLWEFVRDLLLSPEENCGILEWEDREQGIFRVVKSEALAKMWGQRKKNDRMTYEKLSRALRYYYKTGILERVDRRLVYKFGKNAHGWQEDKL
# Assay: as above
# Conditions: 10 mM Tris-HCl pH 7.5, 50 mM NaCl, 1 mM DTT, 4% glycerol, room temperature, 30 min; GST-TFs on glutathione beads, 16-mer random dsDNA library, 0.1% …; high values mean tight binding; double strand, one strand shown; scale: fold enrichment (6-mer frequency, TF over GST control)
row,Sequence,binding signal
1,CCGGTG,0.934
2,GCACTG,0.981
3,ACACCG,0.946
4,TAGAAA,0.964
5,CGCCAA,0.988
6,ACCTTT,1.45
7,GCGCCG,0.879
8,ATGGGC,1.26
9,GTGCTA,0.973
10,TGCCGG,1.09
11,TTGCTT,1.29
12,TGCCAT,1.08
13,GCCCAA,0.986
14,TGCCGA,0.994
15,GCCCCA,0.916
16,GCCGCC,1.01
17,GGTATC,0.993
18,CTGGAA,1.34
19,CGCCAC,1.05
20,ACGTCT,1.09

row,Sequence,binding signal
1,TGGCCA,0.984
2,TTGAGG,1.11
3,ACAAAA,1.21
4,TAATTA,1.2
5,CGAATG,0.998
6,CAATGT,0.965
7,CAAAGC,1.01
8,ATCAAA,1.02
9,CACACG,1.04
10,GTTCTC,1.25
11,TGCATG,1.01
12,TTGCCA,1.04
13,ACTGTT,1.22
14,ACTCAG,0.998
15,CATTGC,0.98
16,ACGTTT,1.23
17,TCAGCA,0.95
18,CATACA,0.964
19,CAATGG,0.964
